This note sets out measurements from US9090605B2, “Substituted 5-,6- and 7-membered heterocycles, medicaments containing such compounds, and their use” (Vitae Pharmaceuticals, Inc., priority 2010, dated 2015).

Protein sequences, listed by entry. Tags and fused reporters are not part of them. Lines headed by an entry give the natural chain unless they say otherwise; changes in a name come on top.
UniProt P28845: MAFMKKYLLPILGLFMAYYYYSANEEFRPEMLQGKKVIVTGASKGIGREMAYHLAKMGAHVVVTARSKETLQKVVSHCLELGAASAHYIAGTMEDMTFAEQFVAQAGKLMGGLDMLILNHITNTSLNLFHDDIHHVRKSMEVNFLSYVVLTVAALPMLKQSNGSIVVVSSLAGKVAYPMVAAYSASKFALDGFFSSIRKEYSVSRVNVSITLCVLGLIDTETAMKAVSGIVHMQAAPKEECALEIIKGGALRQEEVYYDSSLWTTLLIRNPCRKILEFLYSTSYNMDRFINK

The IC50 is the concentration needed to halve the response being measured.

In this assay the target is 11β-HSD1 (Homo sapiens, UniProt P28845). Briefly: Inhibition of a microsomal preparation of 11β-HSD1, scintillation proximity assay, microsomes from CHO cells overexpressing human 11β-HSD1 (biological test example 2). Set-up: expressed in transfected cells; host or cells: CHO cells (microsomes isolated from them). It counts as biochemical. The conditions noted are these: microsomes from CHO cells overexpressing human 11β-HSD1, SPA, [3H]cortisone, 90 minutes at room temperature; read-out: IC50, inhibitory activity on 11β-HSD 1. How it is done: All reactions were carried out at room temperature in 96 well clear flexible PET Microbeta plates (PerkinElmer). The assay begins by dispensing 49 μl of substrate solution [50 mM HEPES, pH 7.4, 100 mM KCl, 5 mM NaCl, 2 mM MgCl2, 2 mM NADPH and 160 nM [^3H]cortisone (1 Ci/mmol)] and mixing in 1 μL of the test compounds in dimethyl sulfoxide previously diluted in half-log increments (8 points) starting at 0.1 mM. After a 10 minute pre-incubation, 50 μL of enzyme solution containing microsomes isolated from CHO cells overexpressing human 11β-HSD1 (10-20 μg/ml of total protein) was added, and the plates were incubated for 90 minutes at room temperature. The reaction was stopped by adding 50 μl of the SPA beads suspension containing 10 μM 18β-glycyrrhetinic acid, 5 mg/ml protein A coated YSi SPA beads (GE Healthcare) and 3.3 μg/ml of anti-cortisol antibody (East Coast Biologics) in Superblock buffer (Bio-Rad). The plates were shaken for 120 minutes at room temperature, and the SPA signal corresponding to [^3H]cortisol was measured on a Microbeta plate reader.

For `C[C@@H](c1ccc(-c2cnc(N3CC(F)(F)C3)nc2)cc1)N1CC[C@](CC(C)(C)O)(c2ccccc2)OC1=O` [Example 33, 3-((S)-1-{4-[2-(3,3-difluoroazetidin-1-yl)pyrimidin-5-yl]phenyl}ethyl)-(S)-6-(2-hydroxy-2-methylpropyl)-6-phenyl-1,3-oxazinan-2-one], the IC50 was 800 pM.
